Among the data in paper PMC4370635 are binding values, retold here.

Chains of the proteins cited; added tags and fusions are not shown. Lines headed by an entry give the natural chain unless they say otherwise; changes in a name come on top.
UniProt P62330: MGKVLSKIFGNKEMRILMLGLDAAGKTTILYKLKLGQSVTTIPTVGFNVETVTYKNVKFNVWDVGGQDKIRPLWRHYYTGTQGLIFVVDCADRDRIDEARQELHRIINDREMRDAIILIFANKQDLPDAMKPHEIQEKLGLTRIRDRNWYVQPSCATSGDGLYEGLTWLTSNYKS

These are yes or no findings as the source states them, for the method shown. Binding seen in cells or lysates may run through a third protein. Some entries that bind do so weakly or less than the wild type. Sequences can lack the tags named with a protein.

The assay addresses T1, GST fused with the ARF6-binding domain (LZII, leucine zipper II domain) of human JIP3 (aa 371-507) (human) (UniProt Q9UPT6).
T1 sequence: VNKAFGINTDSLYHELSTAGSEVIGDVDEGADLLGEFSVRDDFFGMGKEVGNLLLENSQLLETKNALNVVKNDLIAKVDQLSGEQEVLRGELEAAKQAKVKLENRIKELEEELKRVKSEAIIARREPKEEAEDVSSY
The assay can be described thus: pull-down; GST-LZII (37 ug/reaction) incubated with cleared MDA-MB-231 cell lysates for 15 min at 4°C with 0.5% BSA, then glutathione-Sepharose beads for 1 h at 4°C; lysis buffer 50 mM Tris pH 7.4, 137 mM NaCl, 10 mM MgCl2, 10% glycerol, 1% Triton-X100; bound proteins immunoblotted with anti-ARF6 monoclonal antibody; only the target purified. On the technique in general: In western blotting, separated proteins are transferred to a membrane and probed.

In the case of ARF6T27N (from UniProt P62330 1-175), the binding entry was “binds weakly”.
